Results are given in words; binding and its absence hold for the method and conditions named. Some results given as binding are weak or reduced against the parent protein; the word gives no strength. Sequences can lack the tags named with a protein.
Target: T1, glucosidase alpha, neutral C (GANC) tagged with Flag (human) (UniProt Q8TET4)
T1 sequence: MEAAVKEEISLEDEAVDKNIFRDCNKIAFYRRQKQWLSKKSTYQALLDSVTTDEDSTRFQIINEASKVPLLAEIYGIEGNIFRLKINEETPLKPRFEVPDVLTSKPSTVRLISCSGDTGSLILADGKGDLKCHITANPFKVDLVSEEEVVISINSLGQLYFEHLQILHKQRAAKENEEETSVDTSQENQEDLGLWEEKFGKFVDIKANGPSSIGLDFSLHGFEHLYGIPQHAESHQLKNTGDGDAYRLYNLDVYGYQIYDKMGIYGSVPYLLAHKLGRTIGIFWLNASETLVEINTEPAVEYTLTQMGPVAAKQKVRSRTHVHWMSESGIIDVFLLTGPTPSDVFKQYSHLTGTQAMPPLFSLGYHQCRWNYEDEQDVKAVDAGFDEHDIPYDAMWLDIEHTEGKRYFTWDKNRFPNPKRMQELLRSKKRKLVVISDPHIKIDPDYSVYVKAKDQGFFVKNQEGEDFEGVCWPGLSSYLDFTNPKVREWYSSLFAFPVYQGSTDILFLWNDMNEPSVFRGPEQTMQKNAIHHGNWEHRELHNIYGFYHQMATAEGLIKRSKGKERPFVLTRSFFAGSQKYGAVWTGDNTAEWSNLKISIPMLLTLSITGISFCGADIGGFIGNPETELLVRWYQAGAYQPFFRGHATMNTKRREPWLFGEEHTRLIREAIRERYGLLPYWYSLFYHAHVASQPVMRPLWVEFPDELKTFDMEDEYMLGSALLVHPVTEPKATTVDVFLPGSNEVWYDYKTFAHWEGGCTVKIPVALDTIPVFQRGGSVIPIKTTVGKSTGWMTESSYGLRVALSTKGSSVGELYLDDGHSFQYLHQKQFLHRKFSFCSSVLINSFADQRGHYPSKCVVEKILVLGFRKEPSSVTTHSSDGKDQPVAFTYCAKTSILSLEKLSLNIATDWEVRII
Experiment: pull-down; both purified

Chains of the proteins cited; added tags and fusions are not shown.
UniProt Q13200: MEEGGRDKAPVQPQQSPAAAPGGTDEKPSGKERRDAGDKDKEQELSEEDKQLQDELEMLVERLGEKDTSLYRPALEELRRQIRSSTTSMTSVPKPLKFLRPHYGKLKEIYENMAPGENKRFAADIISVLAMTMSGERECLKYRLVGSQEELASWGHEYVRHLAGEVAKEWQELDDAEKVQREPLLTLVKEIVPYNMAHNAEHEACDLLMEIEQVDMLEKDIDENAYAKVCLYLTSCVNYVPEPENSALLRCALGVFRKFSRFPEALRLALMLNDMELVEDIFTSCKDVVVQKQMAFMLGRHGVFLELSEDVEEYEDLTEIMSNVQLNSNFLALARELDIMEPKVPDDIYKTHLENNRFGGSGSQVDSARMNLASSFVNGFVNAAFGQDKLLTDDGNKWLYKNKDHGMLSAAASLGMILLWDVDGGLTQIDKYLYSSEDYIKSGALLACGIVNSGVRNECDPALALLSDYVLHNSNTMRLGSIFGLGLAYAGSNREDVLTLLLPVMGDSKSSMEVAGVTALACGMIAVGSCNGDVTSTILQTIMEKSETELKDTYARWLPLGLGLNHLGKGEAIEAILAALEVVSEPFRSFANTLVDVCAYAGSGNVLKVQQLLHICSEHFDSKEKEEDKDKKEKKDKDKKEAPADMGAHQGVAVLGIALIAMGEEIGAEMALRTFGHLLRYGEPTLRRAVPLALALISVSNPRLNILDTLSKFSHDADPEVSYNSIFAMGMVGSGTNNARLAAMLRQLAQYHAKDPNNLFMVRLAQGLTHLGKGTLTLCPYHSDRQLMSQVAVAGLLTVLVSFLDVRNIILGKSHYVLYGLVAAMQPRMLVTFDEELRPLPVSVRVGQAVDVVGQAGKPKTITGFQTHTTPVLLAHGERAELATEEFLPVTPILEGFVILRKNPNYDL

binding: binds
Substance: PSMD2 protein tagged with HA, purified from E. coli (from UniProt Q13200 1-908)
